# Test results from PubChem BioAssay AID540276 (National Center for Advancing Translational Sciences (NCATS), 2011).
# Out of some 300,000 compounds screened, about 5,400 (1.8%) were called active. Inconclusive results, whose numbers are uncertain, are shown with a selection of clear calls. Calls follow the shape of the full dose curve; tested in HEK293 cells. Potencies beside an inconclusive call are fits to weak or partial responses and may not hold up.
# Experiment: qHTS for inhibitors of binding or entry into cells for Marburg Virus
# Details: Marburg virus pseudotyped entry inhibition, cell reporter; activity change, negative = inhibition: at 37.8 µM (top of the series) unless noted
# % is scaled to controls: 0 for no effect and ±100 for the full control effect; potency is read from the fitted curve at half-maximal effect.
Structure (SMILES),"activity change, negative = inhibition",Potency
C[C@H]1CC[C@H]2C(=O)O[C@H](COc3ccc(C(C)(C)C)cc3)CN2[C@@H]1c1ccc(Br)cc1,inactive: -11.8% [at 14.2 µM],
COc1ccccc1/C=C(/CC(=O)NCc1ccc2c(c1)OCO2)c1nc2ccccc2s1,,"inconclusive: 0.891 µM [inhibitor, full curve, poor fit]"
COC(=O)CSc1nc2ccc(N)cc2s1,inconclusive: 24.9% [activator] [at 46.1 µM],
O=[N+]([O-])CC(=Nc1ccc(Cl)cc1)N/N=C\c1oc(O)c2ccccc12,inactive: -15.6%,
CN=C1S/C(=C\c2ccc(O)c(OC)c2)C(=O)N1C,inactive: -29.6%,
Nc1c(C(=O)c2ccccc2)sc2nsc(SCCN3CCCC3)c12,,"inconclusive: 8.91 µM [inhibitor, partial curve, poor fit]"
CCn1c(SCC(=O)Nc2c(C)cccc2C)nnc1-c1nonc1NC(C)=O,inactive: -7.63% [at 46.1 µM],
O=C(NCCC1=CCCCC1)c1ccc2c(c1)N(Cc1ccccc1)C(=O)c1ccccc1S2=O (stereo not drawn),,"inconclusive: 7.08 µM [inhibitor, full curve]"
O=C(COC(=O)c1ccc(Cl)c(S(=O)(=O)N2CCCC2)c1)NCc1cccs1,inactive: 1.8% [at 46.1 µM],
CCn1cc(-c2cc(C(=O)O)c3ccccc3n2)c(C)n1,,"inconclusive: 10 µM [activator, single point]"
Cc1ccccc1NC(=O)c1c(C)nc(SCC(=O)OCc2ccccc2)c(C#N)c1-c1ccc(F)cc1,,"inconclusive: 35.5 µM [inhibitor, single point]"
O=C(O)CCS(=O)(=O)c1nc(-c2cccs2)cc(C(F)(F)F)n1,inactive: -11.4%,
CCN(CC)C(=O)CSc1nc2cc3c(cc2c(=O)n1CCCC(=O)NCc1ccc(OC)cc1)OCO3,,"inconclusive: 1 µM [inhibitor, full curve, poor fit]"
O=S(=O)(Cc1cc(Cl)nc(-c2ccccc2)n1)c1ccccc1,,"inconclusive: 0.0052 µM [inhibitor, full curve, poor fit]"
Oc1ccccc1C1CC(c2cccs2)=NC(c2cccc(Br)c2)N1 (stereo not drawn),,"inconclusive: 35.5 µM [inhibitor, single point]"
O=C(Cc1n[nH]c(=O)c2ccccc12)NCc1ccccn1,inactive: -4.6%,
COc1ccc(OC)c(NC(=O)Cc2c(C(=O)O)n(C)c3ccccc23)c1,,"inconclusive: 0.708 µM [inhibitor, full curve, poor fit]"
CCc1ccc(CN(Cc2cn[nH]c2-c2ccc(OC)cc2)C(=O)Nc2ccc(Br)cc2)cc1,inactive: -0.0624% [at 46.1 µM],
O=[N+]([O-])c1ccc(CSc2ncnc3c2ncn3[C@@H]2O[C@H](CO)[C@H](O)[C@H]2O)cc1,,"inconclusive: 0.0282 µM [inhibitor, full curve]"
CCOc1ccccc1NC(=S)N(CCCN1CCOCC1)Cc1cn(C)c2ccccc12,,"inconclusive: 22.4 µM [inhibitor, partial curve, poor fit]"
CS(=O)(=O)c1ccc(Cl)c(NC(=O)COC(=O)CCc2c[nH]c3ccccc23)c1,inactive: 8.51%,
O=C1NC2=C(C(=O)CCC2)C(c2ccccc2Cl)N1 (stereo not drawn),inactive: 2.85% [at 46.1 µM],

Structure (SMILES),"activity change, negative = inhibition",Potency
CCc1ccc(NC(=O)Cn2cnc3sc(C)c(S(=O)(=O)N4CCOCC4)c3c2=O)cc1,,"inconclusive: 1 µM [inhibitor, single point]"
Cc1ccccc1N1CCN(C2CCCN(C(=O)CCC3(C)CC3)C2)CC1 (stereo not drawn),inactive: 16.4%,
Cc1ccc(/C=N/NC(=O)c2cc(-c3ccncc3)nc3ccccc23)o1,,"inconclusive: 1 µM [inhibitor, full curve, poor fit]"
NC(=O)C1CCN(C(=O)c2ccc3c(=O)n(Cc4ccco4)c(SCC(=O)c4ccccc4)nc3c2)CC1,inconclusive: 32.3% [activator],
O=C(Nc1cccc(C(F)(F)F)c1)Nc1ccc2snnc2c1,,"inconclusive: 35.5 µM [inhibitor, single point]"
O=C(COC(=O)c1ccc(O)cc1)Nc1ccccc1-c1ccccc1,,"inconclusive: 16.4 µM [inhibitor, single point]"
S=C(NCCCN1CCN(CCCNC(=S)NC2CCCCC2)CC1)NC1CCCCC1,,"inconclusive: 8.91 µM [inhibitor, partial curve, poor fit]"
CN1C(=O)/C(=C\c2cc(N=Nc3ccccc3)ccc2O)SC1=S,inactive: 1.25%,
Nc1ccn(Cc2ccccc2)n1,,"inconclusive: 14.1 µM [inhibitor, single point]"
CCN1C(=O)CS/C1=C(\C#N)S(=O)(=O)c1ccccc1,inactive: -3.05%,
CCOCCn1c(C)c(C(=O)OCC)c2cc(O)c3ccccc3c21,,"inconclusive: 6.31 µM [inhibitor, single point]"
CSCC[C@H](NC(=O)CCNC(C)=O)c1nc2ccccc2[nH]1,,"inconclusive: 35.5 µM [activator, single point]"
Cc1c(NC(=O)CSc2nc3c(cnn3-c3ccccc3)c(=O)[nH]2)c(=O)n(-c2ccccc2)n1C,,"inconclusive: 0.631 µM [activator, full curve]"
Cc1ccc(S(=O)(=O)N(C(=O)c2ccco2)c2cc3sc(=O)oc3c3ccccc23)cc1,,"inconclusive: 11.2 µM [inhibitor, partial curve, poor fit]"
CCn1c(CN2CCCCC2)nc2cc(NC(=O)c3cccc([N+](=O)[O-])c3)ccc21,inactive: -0.0669% [at 46.1 µM],
CCN(CC)S(=O)(=O)c1ccc2oc(Nc3ccccc3)nc2c1,,"inconclusive: 2.24 µM [activator, partial curve, poor fit]"
COc1cc(/C=N/NC(=O)CN2CCCCC2)ccc1OCc1ccccc1,,"inconclusive: 5.62 µM [activator, single point]"
Cc1c(C(=O)Nc2cccc(-c3nc4ccccc4s3)c2)oc2ccc(F)cc12,inactive: 27.5% [at 46.1 µM],
CC(Nc1nc(N2CCCCC2)nc2ccccc12)c1ccccc1 (stereo not drawn),,"inconclusive: 18.3 µM [inhibitor, single point]"
Cc1ccc(S(=O)(=O)c2nc(-c3ccc(F)cc3)oc2SCC(=O)NCC2CCCO2)cc1 (stereo not drawn),,"inconclusive: 29.1 µM [inhibitor, single point]"
COc1cccc(CN2c3ccc(Br)cc3C(O)CS2(=O)=O)c1 (stereo not drawn),,"inconclusive: 0.0079 µM [inhibitor, full curve, poor fit]"

# Copied from the listing, 11 compounds:
Structure (SMILES),"activity change, negative = inhibition",Potency
O=C(Cc1n[nH]c(=O)c2ccccc12)NCc1ccccn1,inactive: -4.6%,
COc1ccc(OC)c(NC(=O)Cc2c(C(=O)O)n(C)c3ccccc23)c1,,"inconclusive: 0.708 µM [inhibitor, full curve, poor fit]"
CCc1ccc(CN(Cc2cn[nH]c2-c2ccc(OC)cc2)C(=O)Nc2ccc(Br)cc2)cc1,inactive: -0.0624% [at 46.1 µM],
O=[N+]([O-])c1ccc(CSc2ncnc3c2ncn3[C@@H]2O[C@H](CO)[C@H](O)[C@H]2O)cc1,,"inconclusive: 0.0282 µM [inhibitor, full curve]"
CCOc1ccccc1NC(=S)N(CCCN1CCOCC1)Cc1cn(C)c2ccccc12,,"inconclusive: 22.4 µM [inhibitor, partial curve, poor fit]"
CS(=O)(=O)c1ccc(Cl)c(NC(=O)COC(=O)CCc2c[nH]c3ccccc23)c1,inactive: 8.51%,
O=C1NC2=C(C(=O)CCC2)C(c2ccccc2Cl)N1 (stereo not drawn),inactive: 2.85% [at 46.1 µM],
CCc1ccc(NC(=O)Cn2cnc3sc(C)c(S(=O)(=O)N4CCOCC4)c3c2=O)cc1,,"inconclusive: 1 µM [inhibitor, single point]"
Cc1ccccc1N1CCN(C2CCCN(C(=O)CCC3(C)CC3)C2)CC1 (stereo not drawn),inactive: 16.4%,
Cc1ccc(/C=N/NC(=O)c2cc(-c3ccncc3)nc3ccccc23)o1,,"inconclusive: 1 µM [inhibitor, full curve, poor fit]"
NC(=O)C1CCN(C(=O)c2ccc3c(=O)n(Cc4ccco4)c(SCC(=O)c4ccccc4)nc3c2)CC1,inconclusive: 32.3% [activator],
